Results: article PMC5210495
No constants are given. Whether binding was seen depends on the method and setting. A result given as binding can be weak or reduced; the word gives no strength.

Amino acid sequences for entries named in this document (tags omitted). A change or cut given only in a name is not applied to a line headed by its entry.
UniProt B7UM95: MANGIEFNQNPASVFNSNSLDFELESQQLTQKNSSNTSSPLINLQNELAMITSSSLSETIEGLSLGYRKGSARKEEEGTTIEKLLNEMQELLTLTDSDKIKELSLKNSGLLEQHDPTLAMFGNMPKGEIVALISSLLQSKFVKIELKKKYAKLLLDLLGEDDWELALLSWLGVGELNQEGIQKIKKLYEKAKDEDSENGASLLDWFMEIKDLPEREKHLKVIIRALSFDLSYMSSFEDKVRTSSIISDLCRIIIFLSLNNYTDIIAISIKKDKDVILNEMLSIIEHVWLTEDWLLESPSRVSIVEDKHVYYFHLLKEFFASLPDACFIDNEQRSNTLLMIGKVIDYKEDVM
UniProt B7UMB2: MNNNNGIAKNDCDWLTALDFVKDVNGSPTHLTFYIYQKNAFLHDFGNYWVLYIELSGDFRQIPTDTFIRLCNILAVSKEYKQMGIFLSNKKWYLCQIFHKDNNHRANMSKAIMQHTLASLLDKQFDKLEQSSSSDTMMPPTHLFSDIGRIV

Biological target: SepL-His (pET28a), expressed in E. coli BL21 (enteropathogenic Escherichia coli (EPEC) O127:H6 strain E2348/69) (UniProt B7UM95)
Assay: ELISA; […] (15, 30, 60 nM) in binding buffer (20 mM Tris pH 7.4, 120 mM NaCl, 2 mM MgCl2, 1 mM CaCl2, 2.5% glycerol, 2 mg/ml BSA), 1 h at 37°C; […]; both purified

For “SepD-His (pET21a), purified (from UniProt B7UMB2)”, the binding was “binds”.
